From publication PMC4139341 (PLoS ONE, 2014)

Amino acid sequences for entries named in this document (tags omitted). Residues count along the entry.
UniProt O42275, 24-633: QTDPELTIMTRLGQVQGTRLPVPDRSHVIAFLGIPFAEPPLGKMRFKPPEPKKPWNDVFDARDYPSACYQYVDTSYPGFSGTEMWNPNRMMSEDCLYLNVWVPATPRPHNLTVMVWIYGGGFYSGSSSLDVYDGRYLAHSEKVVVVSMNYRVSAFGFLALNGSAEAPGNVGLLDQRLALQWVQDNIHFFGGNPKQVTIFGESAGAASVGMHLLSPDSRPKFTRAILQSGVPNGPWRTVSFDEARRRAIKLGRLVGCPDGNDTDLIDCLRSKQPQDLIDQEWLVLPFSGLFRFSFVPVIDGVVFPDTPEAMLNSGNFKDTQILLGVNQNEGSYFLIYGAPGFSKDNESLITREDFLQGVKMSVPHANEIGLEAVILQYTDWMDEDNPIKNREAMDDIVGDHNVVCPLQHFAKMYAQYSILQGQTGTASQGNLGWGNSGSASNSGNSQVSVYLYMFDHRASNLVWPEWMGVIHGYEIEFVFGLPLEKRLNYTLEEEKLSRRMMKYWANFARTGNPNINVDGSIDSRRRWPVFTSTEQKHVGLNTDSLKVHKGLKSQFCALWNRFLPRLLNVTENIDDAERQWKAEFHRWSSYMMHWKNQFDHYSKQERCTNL

Molecular target: AChE (Electrophorus electricus, UniProt O42275)
Assay: biochemical
Method: The modified method of Ellman et al. was adopted to measure AChE activity. Briefly, 25 µl (0.3 U/ml) AChE from Electric eel fish (Electrophorus electricus) was incubated with and without different concentrations of drugs selected from Molecular Docking studies. The reaction was carried out for 15 min at 25°C. […] Total volume of the reaction was made up to 1 ml by Tris buffer, pH 8.0. ATCI hydrolysis was measured by colored product formation, 5-thio-2-nitrobenzoate anion by reaction between DTNB and thiocholine, a hydrolysis product of ATCI. The formation of the colored product was measured at 405 nm wavelength after 30 min. The background was determined from negative controls (omission of AChE enzyme).
Lineweaver-Burk double reciprocal plot was plotted in order to determine the Km. […] The Ki was calculated directly from IC50 value using Cheng-Prussoffs classical equation [45]. [drawing 1]
The reciprocals of reaction rate (1/v) for each inhibitor concentration were plotted against the reciprocals of the substrate concentrations (1/S).

SMILES	IC50
CNCCCC12CCC(c3ccccc31)c1ccccc12 [maprotiline]	100 µM
CN(C)CCC=C1c2ccccc2COc2ccccc21 [doxepin]	480 µM
